In US20040091486A1 one finds binding data, which are given here for 1 substance.

Protein sequences, listed by entry. Tags and fused reporters are not part of them. Residues count along the entry.
UniProt P29317, residues 24-537: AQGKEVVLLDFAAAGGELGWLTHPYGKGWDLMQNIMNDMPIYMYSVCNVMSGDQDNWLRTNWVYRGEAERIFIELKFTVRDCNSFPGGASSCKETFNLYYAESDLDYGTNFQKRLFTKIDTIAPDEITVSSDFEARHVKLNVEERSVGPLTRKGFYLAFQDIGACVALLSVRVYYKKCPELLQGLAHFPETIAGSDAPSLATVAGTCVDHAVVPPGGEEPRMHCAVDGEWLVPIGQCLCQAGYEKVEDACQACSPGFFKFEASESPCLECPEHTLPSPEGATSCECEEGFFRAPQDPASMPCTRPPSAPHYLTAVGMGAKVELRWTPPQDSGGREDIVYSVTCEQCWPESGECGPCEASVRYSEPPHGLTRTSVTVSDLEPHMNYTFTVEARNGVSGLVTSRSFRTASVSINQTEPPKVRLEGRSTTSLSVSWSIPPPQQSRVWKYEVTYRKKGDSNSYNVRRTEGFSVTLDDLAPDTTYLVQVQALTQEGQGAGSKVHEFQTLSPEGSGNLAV
UniProt P20827, residues 19-182: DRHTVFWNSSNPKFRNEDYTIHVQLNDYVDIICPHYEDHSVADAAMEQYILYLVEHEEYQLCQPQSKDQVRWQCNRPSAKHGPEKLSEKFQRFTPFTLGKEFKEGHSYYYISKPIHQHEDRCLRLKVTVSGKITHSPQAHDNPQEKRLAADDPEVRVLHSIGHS

No constants are given. Whether binding was seen depends on the method and setting. Some binding calls cover weakened binding; strength is not graded here.

The target in test [1] is EphA2-Fc, fusion protein consisting of the extracellular domain of EphA2 linked to human IgG1 constant region (human) (UniProt P29317). Description: ELISA, Ephrin A1-Fc immobilized on the plate. A general note: ELISA stands for enzyme-linked immunosorbent assay.
For test [2] the target is unchanged. The test is described as follows: ELISA, Ephrin A1-Fc coated on the plate; very little additional biotinylated Ephrin A1-Fc bound the complex.

Take “Ephrin A1-Fc (from UniProt P20827 19-182) (Fc fusion)”: the binding result in test [1] and in test [2] was “binds” each time.
